Where two headings read alike, the source gives them in different places. No constants are given. Whether binding was seen depends on the method and setting. In cells and extracts the contact can be indirect. Some entries that bind do so weakly or less than the wild type. Where a sequence is shown, tags or fusion partners need not be part of it.
What was measured:
Test in all cases: co-IP
[1] = target: MyD88 (mouse (endogenous in RAW264.7)) (UniProt P22366)
TLR7, HA-tagged [2] = target: T1, TLR7, HA-tagged (UniProt P58681)
T1 sequence: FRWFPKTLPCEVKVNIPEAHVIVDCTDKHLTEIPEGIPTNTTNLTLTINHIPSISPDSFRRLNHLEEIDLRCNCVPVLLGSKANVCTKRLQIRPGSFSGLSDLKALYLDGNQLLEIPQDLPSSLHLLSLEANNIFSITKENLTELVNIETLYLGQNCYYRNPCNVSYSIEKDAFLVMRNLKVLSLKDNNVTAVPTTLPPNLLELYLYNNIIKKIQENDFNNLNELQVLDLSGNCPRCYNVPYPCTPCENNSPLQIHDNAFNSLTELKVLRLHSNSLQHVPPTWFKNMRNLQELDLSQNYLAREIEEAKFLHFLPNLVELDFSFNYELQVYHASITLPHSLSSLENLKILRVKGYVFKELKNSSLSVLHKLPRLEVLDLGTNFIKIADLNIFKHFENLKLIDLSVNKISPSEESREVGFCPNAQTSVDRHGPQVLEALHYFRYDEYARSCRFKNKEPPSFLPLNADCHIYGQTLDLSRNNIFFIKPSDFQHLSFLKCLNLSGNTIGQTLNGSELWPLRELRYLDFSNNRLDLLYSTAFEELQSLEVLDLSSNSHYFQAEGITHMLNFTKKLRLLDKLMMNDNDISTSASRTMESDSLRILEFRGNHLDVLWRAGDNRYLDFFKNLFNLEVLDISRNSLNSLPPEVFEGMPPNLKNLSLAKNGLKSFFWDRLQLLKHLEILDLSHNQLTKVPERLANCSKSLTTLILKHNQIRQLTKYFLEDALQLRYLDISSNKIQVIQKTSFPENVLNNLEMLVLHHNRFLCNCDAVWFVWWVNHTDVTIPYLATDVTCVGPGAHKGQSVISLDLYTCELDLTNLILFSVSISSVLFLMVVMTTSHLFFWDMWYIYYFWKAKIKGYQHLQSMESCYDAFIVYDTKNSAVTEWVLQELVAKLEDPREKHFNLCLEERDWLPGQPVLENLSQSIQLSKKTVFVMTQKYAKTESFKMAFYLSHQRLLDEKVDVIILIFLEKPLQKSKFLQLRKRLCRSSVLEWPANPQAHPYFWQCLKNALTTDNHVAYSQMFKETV

Amino acid sequences for entries named in this document (tags omitted).
UniProt P22366: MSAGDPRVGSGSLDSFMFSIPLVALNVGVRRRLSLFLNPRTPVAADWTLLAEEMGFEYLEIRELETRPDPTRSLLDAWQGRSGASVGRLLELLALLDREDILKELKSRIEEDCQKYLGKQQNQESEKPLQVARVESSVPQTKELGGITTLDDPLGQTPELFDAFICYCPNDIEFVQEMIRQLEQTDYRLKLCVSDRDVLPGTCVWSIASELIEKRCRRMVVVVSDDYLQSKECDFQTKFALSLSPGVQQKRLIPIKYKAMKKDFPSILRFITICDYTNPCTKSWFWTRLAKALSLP

TLR9, HA-tagged [3] = target: T2, TLR9, HA-tagged (UniProt Q9EQU3)
T2 sequence: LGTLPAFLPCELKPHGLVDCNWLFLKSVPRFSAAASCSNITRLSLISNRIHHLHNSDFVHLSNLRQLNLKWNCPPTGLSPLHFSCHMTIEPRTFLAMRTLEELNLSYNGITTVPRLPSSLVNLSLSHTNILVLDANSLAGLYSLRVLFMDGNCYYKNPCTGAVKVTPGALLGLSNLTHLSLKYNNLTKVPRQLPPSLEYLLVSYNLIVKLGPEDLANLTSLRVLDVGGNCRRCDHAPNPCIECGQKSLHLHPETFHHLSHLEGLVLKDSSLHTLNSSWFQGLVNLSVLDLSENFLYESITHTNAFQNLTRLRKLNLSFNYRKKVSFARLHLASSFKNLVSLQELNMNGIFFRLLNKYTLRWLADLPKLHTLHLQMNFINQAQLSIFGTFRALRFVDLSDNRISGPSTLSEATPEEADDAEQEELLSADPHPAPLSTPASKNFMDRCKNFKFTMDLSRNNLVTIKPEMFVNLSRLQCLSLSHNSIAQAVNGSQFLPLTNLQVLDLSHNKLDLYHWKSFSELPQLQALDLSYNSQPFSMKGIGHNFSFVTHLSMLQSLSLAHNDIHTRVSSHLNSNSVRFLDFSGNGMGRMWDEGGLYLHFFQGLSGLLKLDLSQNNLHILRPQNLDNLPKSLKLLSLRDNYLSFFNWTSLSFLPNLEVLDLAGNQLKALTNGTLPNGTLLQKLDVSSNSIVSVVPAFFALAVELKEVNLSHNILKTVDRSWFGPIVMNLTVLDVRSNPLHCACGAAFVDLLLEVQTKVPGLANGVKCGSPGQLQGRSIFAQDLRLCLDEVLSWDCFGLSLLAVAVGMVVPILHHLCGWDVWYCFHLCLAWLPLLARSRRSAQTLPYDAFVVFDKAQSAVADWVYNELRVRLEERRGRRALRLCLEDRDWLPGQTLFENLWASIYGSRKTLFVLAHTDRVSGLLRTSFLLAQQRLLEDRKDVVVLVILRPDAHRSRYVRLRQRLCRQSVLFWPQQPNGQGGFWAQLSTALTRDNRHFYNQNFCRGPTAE

TLR9, HA-tagged [4] = target: T2, TLR9, HA-tagged; remark: listed apart in the source
TLR7, HA-tagged [5] = target: T1, TLR7, HA-tagged; remark: listed apart in the source

B1: Unc93b1 wildtype, 3xFLAG-tagged (protein, UniProt Q8VCW4 1-598)
chain: MEVEPPLYPVAGAAGPQGDEDRHGVPDGPEAPLDELVGAYPNYNEEEEERRYYRRKRLGVVKNVLAASTGVTLTYGVYLGLLQMQLILHYDETYREVKYGNMGLPDIDSKMLMGINVTPIAALLYTPVLIRFFGTKWMMFLAVGIYALFVSTNYWERYYTLVPSAVALGMAIVPLWASMGNYITRMSQKYYEYSHYKEQDEQGPQQRPPRGSHAPYLLVFQAIFYSFFHLSFACAQLPMIYFLNNYLYDLNHTLINVQSCGTKSQGILNGFNKTVLRTLPRSKNLIVVESVLMAVAFLAMLMVLGLCGAAYRPTEEIDLRSVGWGNIFQLPFKHVRDFRLRHLVPFFIYSGFEVLFACTGFALGYGVCSMGLERLAYLLIAYSLGASASSVLGLLGLWLPRSVPLVAGAGLHLLLTLSLFFWAPAPRVLQHSWIFYFVAALWGVGSALNKTGLSTLLGILYEDKERQDFIFTIYHWWQAVAIFVVYLGSSLPMKAKLAVLLVTLVAAAASYLWMEQKLQQGLVPRQPRIPKPQHKVRGYRYLEEDNSDESDMEGEQGQGDCAEDEAPQAGPLGAEPAGPCRKPCPYEQALGGDGPEEQ
In the case of B1, the binding [1] is reported as “no binding”, the binding (TLR7, HA-tagged [2]) is reported as “binds” and the binding (TLR9, HA-tagged [3]) is reported as “binds”. The binding (TLR9, HA-tagged [4]) was “binds” and the binding (TLR7, HA-tagged [5]) was “binds”.

— publication doi:10.1101/410092
